Assay results as given in patent US8592370B2, “Combination of insulin with triazine derivatives” (Poxel S.A.S., priority 2008, dated 2013).

System: hyperglycemic and hypoinsulinemic Type 1 rat models (Streptozotocin)
Experiment: Fasting plasma insulin in STZ Type 1 rat model
Assay type: in vivo

CC1NC(=N)N=C(N(C)C)N1 (stereo not drawn) [EMD, 5,6-dihydro-4-dimethylamino-2-imino-6-methyl-1,3,5-triazine]
Fasting plasma insulin (EMD 75 mg/kg b.i.d. oral in combination with insulin pellets, day 8): 666 pmol/L | Fasting plasma insulin (EMD 75 mg/kg b.i.d. oral in combination with insulin pellets, day 15): 602 pmol/L | Fasting plasma insulin (EMD 75 mg/kg b.i.d. oral in combination with insulin pellets, day 22): 592 pmol/L | Fasting plasma insulin (EMD 75 mg/kg b.i.d. oral in combination with insulin pellets, day 36): 475 pmol/L | Fasting plasma insulin (EMD 150 mg/kg b.i.d. oral in combination with insulin pellets, day 8): 586 pmol/L | Fasting plasma insulin (EMD 150 mg/kg b.i.d. oral in combination with insulin pellets, day 15): 635 pmol/L | Fasting plasma insulin (EMD 150 mg/kg b.i.d. oral in combination with insulin pellets, day 22): 558 pmol/L | Fasting plasma insulin (EMD 150 mg/kg b.i.d. oral in combination with insulin pellets, day 36): 496 pmol/L

control + insulin: subcutaneously implanted insulin pellets releasing 3 U per 24 h (Limplant LINSHIN CANADA); insulin alone group
Fasting plasma insulin (insulin pellets 3 U per 24 h alone, day 8): 653 pmol/L | Fasting plasma insulin (insulin pellets 3 U per 24 h alone, day 15): 597 pmol/L | Fasting plasma insulin (insulin pellets 3 U per 24 h alone, day 22): 496 pmol/L | Fasting plasma insulin (insulin pellets 3 U per 24 h alone, day 36): 459 pmol/L
